# Patent US20200383327A1, “METHOD OF IMPROVING PLANT PERFORMANCE” (The State of Israel, Ministry of Agriculture & Rural …, priority 2018, published 2020)
# Experiment: Sedimentation of Phe on leaves of treated petunia plants
# Details: up to 35 mM
compound,measurement,setting,value
"N[C@@H](Cc1ccccc1)C(=O)O [Phe, Phenylalanine]",Sedimentation of Phe,"drenched, FIGS. 8A-8B",no sedimentation of the drenched Phe was noticed
same,Sedimentation of Phe,"sprayed, FIGS. 7A-7B",no sedimentation of the sprayed Phe was noticed
